According to patent US20100280095A1:
These are yes or no findings as the source states them, for the method shown. Binding seen in cells or lysates may run through a third protein. Some binding calls cover weakened binding; strength is not graded here. Sequences can lack the tags named with a protein.

The chains behind the UniProt entries cited, without tags or fusion partners. Residues count along the entry.
UniProt Q15796, residues 2-467: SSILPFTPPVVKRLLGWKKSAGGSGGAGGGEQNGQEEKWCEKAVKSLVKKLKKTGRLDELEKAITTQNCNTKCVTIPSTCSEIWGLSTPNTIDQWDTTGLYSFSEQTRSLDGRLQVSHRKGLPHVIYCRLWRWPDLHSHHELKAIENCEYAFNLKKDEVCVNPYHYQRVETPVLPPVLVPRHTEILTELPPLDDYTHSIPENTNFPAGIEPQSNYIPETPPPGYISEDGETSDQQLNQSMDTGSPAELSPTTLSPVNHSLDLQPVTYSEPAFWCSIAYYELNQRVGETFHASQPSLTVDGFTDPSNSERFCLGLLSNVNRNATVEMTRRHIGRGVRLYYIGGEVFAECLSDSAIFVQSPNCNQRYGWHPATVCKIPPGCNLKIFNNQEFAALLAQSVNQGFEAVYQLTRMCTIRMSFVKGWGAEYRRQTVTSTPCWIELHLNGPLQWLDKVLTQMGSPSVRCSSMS
UniProt P84022, residues 2-425: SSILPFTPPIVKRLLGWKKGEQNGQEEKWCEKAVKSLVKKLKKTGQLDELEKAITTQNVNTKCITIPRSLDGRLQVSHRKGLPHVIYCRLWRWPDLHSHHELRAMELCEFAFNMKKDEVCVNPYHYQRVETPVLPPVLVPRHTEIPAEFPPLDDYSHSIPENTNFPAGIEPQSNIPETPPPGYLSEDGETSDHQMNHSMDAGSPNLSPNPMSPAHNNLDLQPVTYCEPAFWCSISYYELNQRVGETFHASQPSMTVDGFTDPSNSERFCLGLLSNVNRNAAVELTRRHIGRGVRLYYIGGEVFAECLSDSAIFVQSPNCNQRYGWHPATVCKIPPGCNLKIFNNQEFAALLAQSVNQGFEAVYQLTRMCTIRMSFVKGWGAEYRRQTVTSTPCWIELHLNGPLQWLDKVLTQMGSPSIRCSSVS

Experiments:
[1] = biological target: endogenous Smad2 of 293T cells (UniProt Q15796); test: co-immunoprecipitation (FIG. 2a legend): anti-c-Myc IP, anti-Smad2 immunoblot
[2] = biological target: endogenous Smad2 of 293T cells (UniProt Q15796); test: co-immunoprecipitation: anti-c-Myc IP of 293T whole cell extract, immunoblot with anti-Smad2
[3] = biological target: endogenous Smad3 of 293T cells (UniProt P84022); test: co-immunoprecipitation (FIG. 2a legend): anti-c-Myc IP, anti-Smad3 immunoblot
[4] = biological target: endogenous Smad3 of 293T cells (UniProt P84022); test: co-immunoprecipitation: anti-c-Myc IP of 293T whole cell extract, immunoblot with anti-Smad3
[5] = biological target: endogenous Smad2 of 293T cells (UniProt Q15796); test: summary of the co-immunoprecipitation result
[6] = biological target: endogenous Smad3 of 293T cells (UniProt P84022); test: summary of the co-immunoprecipitation result

Measured: binding

B1: c-Myc-tagged PDLIM2 (murine Pdlim2 coding region in pCMV-Myc) (enzyme, not shown: small tags and cut ends)
chain: MALTVDVAGPAPWGFRISGGRDFHTPIIVTKVTERGKAEAADLRPGDIIVAINGQSAENMLHAEAQSKIRQSASPLRLQLDRSQTASPGQTNGEGSLEVLATRFQGSLRTHRDSQSSQRSACFSPVSLSPRPCSPFSTPPPTSPVALSKEDMIGCSFQSLTHSPGLAAAHHLTYPGHPTSQQAGHSSPSDSAVRVLLHSPGRPSSPRFSSLDLEEDSEVFKMLQENRQGRAAPRQSSSFRLLQEALEAEERGGTPAFVPSSLSSQASLPTSRALATPPKLHTCEKCSVNISNQAVRIQEGRYRHPGCYTCADCGLNLKMRGHFWVGNELYCEKHARQRYSMPGTLNSRA
binds: [1] | [2] | [3] | [4] | [5] | [6]
